Assay results published in article doi:10.1101/2022.05.04.490582.
These are yes or no findings as the source states them, for the method shown. Binding seen in cells or lysates may run through a third protein. Some results given as binding are weak or reduced against the parent protein; the word gives no strength.

Protein sequences, listed by entry. Tags and fused reporters are not part of them.
UniProt Q9QXL1: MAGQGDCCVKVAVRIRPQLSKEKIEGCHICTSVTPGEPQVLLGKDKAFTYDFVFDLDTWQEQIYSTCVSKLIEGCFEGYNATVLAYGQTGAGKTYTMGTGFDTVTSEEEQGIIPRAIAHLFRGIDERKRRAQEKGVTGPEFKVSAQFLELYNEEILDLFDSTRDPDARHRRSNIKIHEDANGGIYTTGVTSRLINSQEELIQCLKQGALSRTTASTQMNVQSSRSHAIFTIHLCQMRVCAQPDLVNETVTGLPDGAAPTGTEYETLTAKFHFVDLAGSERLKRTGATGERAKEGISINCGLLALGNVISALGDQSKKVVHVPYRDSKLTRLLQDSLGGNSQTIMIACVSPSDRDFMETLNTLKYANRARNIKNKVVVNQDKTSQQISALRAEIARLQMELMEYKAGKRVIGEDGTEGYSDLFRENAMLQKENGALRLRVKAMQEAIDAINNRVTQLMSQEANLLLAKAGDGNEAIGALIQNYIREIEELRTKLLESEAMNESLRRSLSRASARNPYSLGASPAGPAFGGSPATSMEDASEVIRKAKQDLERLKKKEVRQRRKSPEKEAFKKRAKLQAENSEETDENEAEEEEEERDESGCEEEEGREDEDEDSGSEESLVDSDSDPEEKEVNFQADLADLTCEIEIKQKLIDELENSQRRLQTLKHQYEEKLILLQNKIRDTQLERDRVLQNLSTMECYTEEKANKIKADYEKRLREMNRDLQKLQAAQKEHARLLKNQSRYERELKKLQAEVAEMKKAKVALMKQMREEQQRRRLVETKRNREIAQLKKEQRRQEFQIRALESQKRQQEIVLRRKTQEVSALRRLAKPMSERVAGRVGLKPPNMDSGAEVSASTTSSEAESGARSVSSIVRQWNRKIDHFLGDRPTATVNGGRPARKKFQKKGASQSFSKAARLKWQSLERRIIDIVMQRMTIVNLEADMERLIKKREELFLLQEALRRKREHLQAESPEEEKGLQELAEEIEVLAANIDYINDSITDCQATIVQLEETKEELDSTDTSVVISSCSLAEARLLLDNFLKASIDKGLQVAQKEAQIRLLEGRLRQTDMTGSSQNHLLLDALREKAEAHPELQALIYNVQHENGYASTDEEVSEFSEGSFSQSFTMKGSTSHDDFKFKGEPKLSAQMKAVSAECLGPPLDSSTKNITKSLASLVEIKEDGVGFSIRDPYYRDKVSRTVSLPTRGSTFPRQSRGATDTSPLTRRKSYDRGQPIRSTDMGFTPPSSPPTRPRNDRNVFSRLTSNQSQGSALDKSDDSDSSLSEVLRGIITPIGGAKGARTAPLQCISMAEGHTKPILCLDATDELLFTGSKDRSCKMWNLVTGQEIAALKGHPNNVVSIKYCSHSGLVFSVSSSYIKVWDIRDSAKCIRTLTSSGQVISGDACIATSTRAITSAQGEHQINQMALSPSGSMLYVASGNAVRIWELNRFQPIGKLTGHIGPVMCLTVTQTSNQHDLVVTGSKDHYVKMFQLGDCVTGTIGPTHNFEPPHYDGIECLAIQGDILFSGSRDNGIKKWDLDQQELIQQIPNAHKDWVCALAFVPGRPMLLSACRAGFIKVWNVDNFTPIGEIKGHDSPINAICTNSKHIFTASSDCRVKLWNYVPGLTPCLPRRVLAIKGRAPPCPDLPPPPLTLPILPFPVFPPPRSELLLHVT
UniProt Q9QXL2: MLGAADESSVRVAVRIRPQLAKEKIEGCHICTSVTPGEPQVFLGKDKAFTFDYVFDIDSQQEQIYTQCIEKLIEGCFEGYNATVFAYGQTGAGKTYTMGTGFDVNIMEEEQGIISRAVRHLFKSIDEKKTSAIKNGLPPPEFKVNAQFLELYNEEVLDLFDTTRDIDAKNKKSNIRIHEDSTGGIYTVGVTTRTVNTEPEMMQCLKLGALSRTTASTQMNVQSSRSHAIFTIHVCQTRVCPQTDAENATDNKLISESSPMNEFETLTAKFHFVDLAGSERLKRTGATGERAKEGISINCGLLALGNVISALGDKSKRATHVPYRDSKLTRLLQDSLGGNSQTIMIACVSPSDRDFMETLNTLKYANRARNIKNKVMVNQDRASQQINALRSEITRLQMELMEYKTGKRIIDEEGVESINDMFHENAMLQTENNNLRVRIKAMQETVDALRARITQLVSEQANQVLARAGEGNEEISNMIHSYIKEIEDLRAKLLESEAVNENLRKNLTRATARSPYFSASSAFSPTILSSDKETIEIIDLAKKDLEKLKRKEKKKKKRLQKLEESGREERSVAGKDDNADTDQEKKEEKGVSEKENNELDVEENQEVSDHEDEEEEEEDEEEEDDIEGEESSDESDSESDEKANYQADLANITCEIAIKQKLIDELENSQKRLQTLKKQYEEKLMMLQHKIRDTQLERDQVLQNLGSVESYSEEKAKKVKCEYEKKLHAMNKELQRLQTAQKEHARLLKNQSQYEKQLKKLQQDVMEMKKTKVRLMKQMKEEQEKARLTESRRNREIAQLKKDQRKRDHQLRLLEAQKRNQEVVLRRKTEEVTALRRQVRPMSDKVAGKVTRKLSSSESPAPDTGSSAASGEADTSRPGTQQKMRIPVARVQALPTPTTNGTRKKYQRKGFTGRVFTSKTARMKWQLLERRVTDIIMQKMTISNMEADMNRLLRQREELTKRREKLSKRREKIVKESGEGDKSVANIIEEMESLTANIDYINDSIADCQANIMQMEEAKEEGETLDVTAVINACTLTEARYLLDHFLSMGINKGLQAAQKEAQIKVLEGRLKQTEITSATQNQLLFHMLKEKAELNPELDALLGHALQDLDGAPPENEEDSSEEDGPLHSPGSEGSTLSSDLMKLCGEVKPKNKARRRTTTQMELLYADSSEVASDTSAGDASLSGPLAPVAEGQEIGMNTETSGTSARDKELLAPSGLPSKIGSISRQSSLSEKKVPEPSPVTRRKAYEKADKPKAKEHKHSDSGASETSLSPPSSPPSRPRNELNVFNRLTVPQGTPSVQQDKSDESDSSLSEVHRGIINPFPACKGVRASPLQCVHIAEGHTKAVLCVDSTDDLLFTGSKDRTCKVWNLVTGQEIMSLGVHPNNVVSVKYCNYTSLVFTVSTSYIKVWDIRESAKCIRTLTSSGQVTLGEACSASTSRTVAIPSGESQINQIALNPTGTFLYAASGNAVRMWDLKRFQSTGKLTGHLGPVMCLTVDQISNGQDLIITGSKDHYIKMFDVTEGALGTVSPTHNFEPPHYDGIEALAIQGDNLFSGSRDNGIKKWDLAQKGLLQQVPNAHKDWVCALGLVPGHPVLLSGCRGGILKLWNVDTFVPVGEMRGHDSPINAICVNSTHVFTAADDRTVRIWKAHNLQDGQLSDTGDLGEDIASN

T1: guanylate kinase-associated protein (GKAP) (mouse (endogenous in brain lysate)) (UniProt Q9D415)
T1 sequence: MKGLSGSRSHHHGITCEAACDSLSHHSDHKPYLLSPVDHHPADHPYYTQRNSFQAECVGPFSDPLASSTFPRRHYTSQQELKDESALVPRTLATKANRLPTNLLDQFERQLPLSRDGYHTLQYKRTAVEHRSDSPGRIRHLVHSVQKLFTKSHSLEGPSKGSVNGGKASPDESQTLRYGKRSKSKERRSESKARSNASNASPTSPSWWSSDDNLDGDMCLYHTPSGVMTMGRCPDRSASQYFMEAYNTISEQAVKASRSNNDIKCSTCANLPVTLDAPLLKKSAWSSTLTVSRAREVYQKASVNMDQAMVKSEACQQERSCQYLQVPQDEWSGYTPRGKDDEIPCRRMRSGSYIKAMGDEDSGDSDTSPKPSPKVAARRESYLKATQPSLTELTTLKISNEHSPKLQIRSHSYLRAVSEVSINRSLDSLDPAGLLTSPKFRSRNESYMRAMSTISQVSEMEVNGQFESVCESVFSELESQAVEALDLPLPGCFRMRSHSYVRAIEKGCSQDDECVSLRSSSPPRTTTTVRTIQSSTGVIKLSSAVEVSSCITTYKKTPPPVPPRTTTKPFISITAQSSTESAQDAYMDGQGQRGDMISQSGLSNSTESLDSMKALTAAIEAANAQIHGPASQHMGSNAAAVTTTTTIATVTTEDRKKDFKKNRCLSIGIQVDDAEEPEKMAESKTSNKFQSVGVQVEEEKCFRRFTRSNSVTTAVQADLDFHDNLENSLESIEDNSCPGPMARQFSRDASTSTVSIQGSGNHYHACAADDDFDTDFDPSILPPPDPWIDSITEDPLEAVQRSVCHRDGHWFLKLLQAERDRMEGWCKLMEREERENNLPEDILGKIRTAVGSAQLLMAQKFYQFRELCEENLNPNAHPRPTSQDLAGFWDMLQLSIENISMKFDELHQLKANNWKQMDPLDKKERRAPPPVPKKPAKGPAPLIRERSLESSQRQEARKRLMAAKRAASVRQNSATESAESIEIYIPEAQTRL


Experiments:
[1] = target: T1, guanylate kinase-associated protein (GKAP) (mouse (endogenous in brain lysate)); assay: co-IP
[2] = target: kinesin motor protein KIF21B (mouse (endogenous in hippocampal and brain lysate)) (UniProt Q9QXL1); assay: co-IP

Molecule | binding [1] | binding [2]
kinesin motor protein KIF21B (from UniProt Q9QXL1 1-1668) | binds | 
guanylate kinase-associated protein (GKAP) (protein, UniProt Q9D415 1-992) MKGLSGSRSHHHGITCEAACDSLSHHSDHKPYLLSPVDHHPADHPYYTQRNSFQAECVGPFSDPLASSTFPRRHYTSQQELKDESALVPRTLATKANRLPTNLLDQFERQLPLSRDGYHTLQYKRTAVEHRSDSPGRIRHLVHSVQKLFTKSHSLEGPSKGSVNGGKASPDESQTLRYGKRSKSKERRSESKARSNASNASPTSPSWWSSDDNLDGDMCLYHTPSGVMTMGRCPDRSASQYFMEAYNTISEQAVKASRSNNDIKCSTCANLPVTLDAPLLKKSAWSSTLTVSRAREVYQKASVNMDQAMVKSEACQQERSCQYLQVPQDEWSGYTPRGKDDEIPCRRMRSGSYIKAMGDEDSGDSDTSPKPSPKVAARRESYLKATQPSLTELTTLKISNEHSPKLQIRSHSYLRAVSEVSINRSLDSLDPAGLLTSPKFRSRNESYMRAMSTISQVSEMEVNGQFESVCESVFSELESQAVEALDLPLPGCFRMRSHSYVRAIEKGCSQDDECVSLRSSSPPRTTTTVRTIQSSTGVIKLSSAVEVSSCITTYKKTPPPVPPRTTTKPFISITAQSSTESAQDAYMDGQGQRGDMISQSGLSNSTESLDSMKALTAAIEAANAQIHGPASQHMGSNAAAVTTTTTIATVTTEDRKKDFKKNRCLSIGIQVDDAEEPEKMAESKTSNKFQSVGVQVEEEKCFRRFTRSNSVTTAVQADLDFHDNLENSLESIEDNSCPGPMARQFSRDASTSTVSIQGSGNHYHACAADDDFDTDFDPSILPPPDPWIDSITEDPLEAVQRSVCHRDGHWFLKLLQAERDRMEGWCKLMEREERENNLPEDILGKIRTAVGSAQLLMAQKFYQFRELCEENLNPNAHPRPTSQDLAGFWDMLQLSIENISMKFDELHQLKANNWKQMDPLDKKERRAPPPVPKKPAKGPAPLIRERSLESSQRQEARKRLMAAKRAASVRQNSATESAESIEIYIPEAQTRL |  | binds

Continued, values first:

binding [1] | binding [2] | Molecule
no binding |  | kinesin motor KIF21A (from UniProt Q9QXL2 1-1672)
binds |  | Homer-1 (protein, UniProt Q9Z2Y3 1-366) MGEQPIFSTRAHVFQIDPNTKKNWVPTSKHAVTVSYFYDSTRNVYRIISLDGSKAIINSTITPNMTFTKTSQKFGQWADSRANTVYGLGFSSEHHLSKFAEKFQEFKEAARLAKEKSQEKMELTSTPSQESAGGDLQSPLTPESINGTDDERTPDVTQNSEPRAEPTQNALPFPHSAGDRTQALSHASSAISKHWEAELATLKGNNAKLTAALLESTANVKQWKQQLAAYQEEAERLHKRVTELECVSSQANAVHSHKTELNQTVQELEETLKVKEEEIERLKQEIDNARELQEQRDSLTQKLQEVEIRNKDLEGQLSDLEQRLEKSQNEQEAFRSNLKTLLEILDGKIFELTELRDNLAKLLECS
